This experiment has as its system B6C3F1 mice, intracerebral ependymoblastoma, median survival T/C. As to the kind of experiment: NCI In Vivo Anticancer Drug Screen. Data for tumor model Ependymoblastoma (intracerebral) in B6C3F1 mice. To be noted: T/C endpoint: median survival time, higher T/C = longer survival. The method, then:
The antitumor activity of compounds was measured in mice bearing transplantable tumors. Survival or tumor size were measured and the results are expressed as the measurement made in the treated group (T) divided by the measurement made in the vehicle treated control group (C). The tumor model used in this assay is Ependymoblastoma (intracerebral) in B6C3F1 mice

The mark [1] stands for this setting: dose: 200.0 mg/kg/injection, schedule: Q01DX005 (ip), vehicle: saline with Tween-80.
The mark [2] stands for this setting: dose: 400.0 mg/kg/injection, schedule: Q01DX005 (ip), vehicle: saline with Tween-80.
[3] abbreviates: dose: 16.0 mg/kg/injection, schedule: Q01DX005 (ip), vehicle: saline with Tween-80.
[4] abbreviates: dose: 32.0 mg/kg/injection, schedule: Q01DX005 (ip), vehicle: saline with Tween-80.

Consider 14 compounds from PubChem BioAssay AID226 (DTP/NCI, 2004).

Each structure is given as a SMILES string. The list shows only some results of the screen, not a fair sample: it gathers tests that were run many times, whatever their T/C, doses with no T/C, and many T/C values between a quarter and a half above the control. Further doses and runs are listed elsewhere. T/C: endpoint of the treated group in % of that of the vehicle group. Some entries give survivors of the animals treated and no T/C: the source holds a T/C of zero for them, seemingly a mark for toxic or unscored doses. Some doses without a T/C left all or most animals alive at the check, yet need not have been tolerated: the source hardly ever lists a survival T/C far under the control, and the zero likely stands for such cases as well. Survivors were counted at the toxicity check, usually on the fifth day, unless a day is given; later deaths do not show. Schedules are NCI's codes, read here as Q, the interval in days (D) or hours (H), X, the number of doses. Some doses were run more than once; the results are listed from low to high. For survival time, this PubChem deposit counts one and a half times the control or more as active, and values a quarter to a half above the control carry no call in these data; other NCI protocols may use other cut-offs. Some T/C values are followed by the survivors on the day toxicity was checked, most often the fifth; where none is given, no animal had died by that day. Brackets with × stand for listed records that agree.

`N=c1ccn2c(n1)OC1C(O)C(CO)OC12` (configuration not stated): the T/C was 134 % of control (dose: 300.0 mg/kg/injection, schedule: Q01DX005 (ip), vehicle: saline) and 140 % of control (dose: 600.0 mg/kg/injection, schedule: Q01DX005 (ip), vehicle: saline).

For the compound `CN(Cc1cnc2nc(N)nc(N)c2n1)c1ccc(C(=O)N[C@@H](CCC(=O)O)C(=O)O)cc1`, the survivor count runs as follows: (dose: 32.0 mg/kg/injection, schedule: Q04DX003 (ip), vehicle: saline with Tween-80) 10 of 10; (dose: 64.0 mg/kg/injection, schedule: Q01DX009 (ip), vehicle: saline with Tween-80) 9 of 10; (dose: 64.0 mg/kg/injection, schedule: Q04DX003 (ip), vehicle: saline with Tween-80) 8 of 10; (dose: 128.0 mg/kg/injection, schedule: Q01DX009 (ip), vehicle: saline with Tween-80) 10 of 10; (dose: 128.0 mg/kg/injection, schedule: Q04DX003 (ip), vehicle: saline with Tween-80) 8 of 10; (dose: 256.0 mg/kg/injection, schedule: Q01DX009 (ip), vehicle: saline with Tween-80) 9 of 10. Besides, the survivor count is listed as 2 of 10 (dose: 256.0 mg/kg/injection, schedule: Q04DX003 (ip), vehicle: saline with Tween-80); 5 of 10 (dose: 512.0 mg/kg/injection, schedule: Q01DX009 (ip), vehicle: saline with Tween-80); 1 of 10 (dose: 512.0 mg/kg/injection, schedule: Q04DX003 (ip), vehicle: saline with Tween-80); 2 of 10 (dose: 1024.0 mg/kg/injection, schedule: Q01DX009 (ip), vehicle: saline with Tween-80); 0 of 10 (dose: 1024.0 mg/kg/injection, schedule: Q04DX003 (ip), vehicle: saline with Tween-80).

As for `Nc1ccc(S(=O)(=O)c2ccc(N)cc2)cc1`, the survivor count under setting [1] is 4 of 10 and the survivor count under setting [2] is on record as 0 of 10.

In the case of `CCCCC(=O)OCC1OC(n2cnc3c(=S)nc[nH]c32)C(OC(=O)CCCC)C1OC(=O)CCCC` (configuration not stated), the survivor count under setting [1] was 9 of 10.

`CCCCCN(C)/N=N/c1nc[nH]c1C(N)=O`: the T/C runs as follows: under setting [3], 146 % of control; under setting [4], 144 % of control. Also, for the setting “dose: 256.0 mg/kg/injection, schedule: Q01DX005 (ip), vehicle: saline with Tween-80”, the survivor count was 10 of 10.

For `CCCN(C)/N=N/c1nc[nH]c1C(N)=O`, the T/C runs as follows: under setting [3], 130 % of control; under setting [4], 137 % of control; (dose: 64.0 mg/kg/injection, schedule: Q01DX005 (ip), vehicle: saline with Tween-80) 144 % of control.

Consider `CCCC(=O)OCC1OC(n2cnc3c(=S)nc[nH]c32)C(OC(=O)CCC)C1OC(=O)CCC` (configuration not stated), for which the survivor count is given as 10 of 10 (dose: 100.0 mg/kg/injection, schedule: Q01DX005 (ip), vehicle: saline with Tween-80) and 10 of 10 under setting [1].

As for `CNc1nc(N(C)C)nc(N(C)C)n1`, the survivor count by setting is: (dose: 32.0 mg/kg/injection, schedule: Q01DX005 (ip), vehicle: saline) 7 of 10; (dose: 256.0 mg/kg/injection, schedule: Q01DX005 (ip), vehicle: saline) 2 of 10.

For `OC(CBr)C(O)C(O)C(O)CBr` (configuration not stated), the T/C runs as follows: (dose: 50.0 mg/kg/injection, schedule: Q01DX005 (ip), vehicle: saline with Tween-80, evaluated on day 40) 106 % of control; (dose: 50.0 mg/kg/injection, schedule: Q01DX005 (ip), vehicle: saline with Tween-80, evaluated on day 60) 109 (2×), 112 [8 of 10 alive], 114, 115 % of control; (dose: 100.0 mg/kg/injection, schedule: Q01DX005 (ip), vehicle: saline with Tween-80, evaluated on day 40) 120 % of control; (dose: 100.0 mg/kg/injection, schedule: Q01DX005 (ip), vehicle: saline with Tween-80, evaluated on day 60) 96 [7 of 10 alive], 101, 112 (2×), 119, 133 % of control; (dose: 100.0 mg/kg/injection, schedule: Q01DX005 (ip), vehicle: saline, evaluated on day 45) 128 % of control; (dose: 100.0 mg/kg/injection, schedule: Q01DX005 (ip), vehicle: saline, evaluated on day 60) 131 and 135 % of control. Also, the T/C is 104 % of control (dose: 200.0 mg/kg/injection, schedule: Q01DX005 (ip), vehicle: saline with Tween-80, evaluated on day 40); 86 [4 of 10 alive], 108 [9 of 10 alive], 114, 121, 128, 133 % of control (dose: 200.0 mg/kg/injection, schedule: Q01DX005 (ip), vehicle: saline with Tween-80, evaluated on day 60); 114, 119 [7 of 10 alive], 129, 141 % of control under setting [2]. For the same compound, the survivor count runs as follows: under setting [2], 9 of 10 and 10 of 10; (dose: 400.0 mg/kg/injection, schedule: Q01DX005 (ip), vehicle: saline) 10 of 10.

Regarding `O=NN(CCF)C(=O)NC1CCCCC1`, the survivor count (dose: 40.0 mg/kg/injection, schedule: Q01DX005 (ip), vehicle: Klucel (hydroxypropylcellulose) (HPC)) is given as 7 of 10 on day 6 and the survivor count (dose: 162.8 mg/kg/injection, schedule: Q01DX001 (ip), vehicle: other) is listed as 8 of 10.

Turning to `CCCCCCC1CC1C(=O)NCCCCCN=C(N)N` (configuration not stated), the survivor count (dose: 80.0 mg/kg/injection, schedule: Q01DX005 (ip), vehicle: Klucel (hydroxypropylcellulose) (HPC)) was 1 of 10.

For the compound `O=C(O)C(O)C(O)C(=O)O.[NH-]C1CCCCC1[NH-].[Pt+2]` (configuration not stated), the survivor count is reported as 10 of 10 (dose: 8.0 mg/kg/injection, schedule: Q01DX005 (ip), vehicle: dextrose); 10 of 10 (dose: 16.0 mg/kg/injection, schedule: Q01DX005 (ip), vehicle: dextrose); 8 of 10 (dose: 32.0 mg/kg/injection, schedule: Q01DX005 (ip), vehicle: dextrose).

For the compound `C(COCCOCC1CO1)OCCOCC1CO1` (configuration not stated), where the note is “dose: 200.0 mg/kg/injection, schedule: Q01DX005 (ip), vehicle: saline”, the T/C is 127 % of control.

Turning to `O=NN(CCCl)C(=O)NC1CCCCC1`, the T/C reads like this: (dose: 2.0 mg/kg/injection, schedule: Q01DX009 (ip), vehicle: Klucel (hydroxypropylcellulose) (HPC)) 125 % of control; (dose: 3.0 mg/kg/injection, schedule: Q01DX009 (ip), vehicle: Klucel (hydroxypropylcellulose) (HPC)) 141 % of control; (dose: 8.0 mg/kg/injection, schedule: Q01DX001 (ip), vehicle: saline + alcohol) 128 % of control; (dose: 16.0 mg/kg/injection, schedule: Q01DX001 (ip), vehicle: saline + alcohol) 135 % of control. Also, the survivor count reads like this: (dose: 32.0 mg/kg/injection, schedule: Q01DX009 (ip), vehicle: Klucel (hydroxypropylcellulose) (HPC)) 10 of 10; (dose: 64.0 mg/kg/injection, schedule: Q01DX009 (ip), vehicle: Klucel (hydroxypropylcellulose) (HPC)) 8 of 10; (dose: 75.7 mg/kg/injection, schedule: Q01DX001 (ip), vehicle: other) 7 of 10; (dose: 256.0 mg/kg/injection, schedule: Q01DX001 (ip), vehicle: saline + alcohol) 6 of 10.
